PMC7596241
These are yes or no findings as the source states them, for the method shown. Binding seen in cells or lysates may run through a third protein. Some entries that bind do so weakly or less than the wild type.

Protein sequences, listed by entry. Tags and fused reporters are not part of them.
UniProt P42684: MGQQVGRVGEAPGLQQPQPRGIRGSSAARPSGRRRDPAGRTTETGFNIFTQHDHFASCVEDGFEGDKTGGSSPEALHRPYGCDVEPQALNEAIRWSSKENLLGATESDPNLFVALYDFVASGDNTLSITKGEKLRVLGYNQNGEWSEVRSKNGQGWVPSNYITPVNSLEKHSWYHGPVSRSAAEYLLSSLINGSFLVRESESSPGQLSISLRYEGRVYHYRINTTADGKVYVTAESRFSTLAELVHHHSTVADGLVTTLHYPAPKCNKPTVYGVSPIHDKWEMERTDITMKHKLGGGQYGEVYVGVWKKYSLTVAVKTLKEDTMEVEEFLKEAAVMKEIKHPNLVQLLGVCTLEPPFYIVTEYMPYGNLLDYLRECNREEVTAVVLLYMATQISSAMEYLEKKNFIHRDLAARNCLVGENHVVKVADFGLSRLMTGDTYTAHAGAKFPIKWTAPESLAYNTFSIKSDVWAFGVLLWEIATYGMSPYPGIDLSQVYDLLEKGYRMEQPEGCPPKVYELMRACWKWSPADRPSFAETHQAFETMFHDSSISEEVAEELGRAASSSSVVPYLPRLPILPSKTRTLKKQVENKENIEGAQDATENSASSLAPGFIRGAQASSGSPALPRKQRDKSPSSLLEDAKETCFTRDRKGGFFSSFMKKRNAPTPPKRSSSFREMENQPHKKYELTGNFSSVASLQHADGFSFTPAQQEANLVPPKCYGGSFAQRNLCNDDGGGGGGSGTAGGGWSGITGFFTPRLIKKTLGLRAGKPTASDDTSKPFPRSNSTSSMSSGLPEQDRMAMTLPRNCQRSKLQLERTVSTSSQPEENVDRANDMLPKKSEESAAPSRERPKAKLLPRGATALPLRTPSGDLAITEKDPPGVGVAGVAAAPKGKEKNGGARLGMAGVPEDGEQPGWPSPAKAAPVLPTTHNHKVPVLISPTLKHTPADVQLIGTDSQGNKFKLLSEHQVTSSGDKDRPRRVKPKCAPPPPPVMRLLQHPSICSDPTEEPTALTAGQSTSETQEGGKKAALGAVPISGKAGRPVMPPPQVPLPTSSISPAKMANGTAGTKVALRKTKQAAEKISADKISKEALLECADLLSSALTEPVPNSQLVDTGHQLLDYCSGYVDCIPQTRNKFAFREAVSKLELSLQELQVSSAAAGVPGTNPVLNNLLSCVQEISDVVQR

Assays:
[1] = target: ABL2 (human (endogenous in melanoma cells)) (UniProt P42684); experiment: co-IP; endogenous ABL2 immunoprecipitated with an ABL2 antibody (inefficient); blots; Supplementary Fig. 6i
[2] = target: ABL1 (human (endogenous in M14-BMR)) (UniProt P00519); experiment: co-IP; endogenous ABL1 immunoprecipitated (agarose-conjugated antibody, 3 h) from M14-BMR cells treated with D/T (100/20 nM), also with D/T + nilotinib (2.5 uM); TNEN buffer (50 mM Tris pH 7.5, 50 mM NaCl, 2 mM EDTA, 0.5% NP-40); rabbit IgG as isotype control; blots

binding [1]: binds | binding [2]: binds
Substance: CRAF (from UniProt P04049 1-648)
